PubChem BioAssay AID624291 (National Center for Advancing Translational Sciences (NCATS), 2012)
The whole screen tested about 350,000 compounds, of which about 220 (0.063%) were called active. Inconclusive means that the source gave no clear call. Such entries were picked first, then a sample of the others. Calls follow the shape of the dose curve; as a rule, active = well fitted activation curve with a large enough effect; inconclusive = small, poorly fitted or top-dose-only effect; inactive = no such curve, though single readings can be large or run the other way. Potencies of inconclusive entries are doubtful fits and often do not repeat.

Test: qHTS for Activators of Integrin-Mediated Alleviation for Muscular Dystrophy; also: nearly all actives have a fitted effect of over 60% in size
Settings: alpha7betagal myoblasts, beta-gal FDG fluorescence, 48 h; series mostly up to 38.3 µM
Outline: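 alpha7betagal+/- myoblasts (passage 13, 250/well) treated 48 h at 37C with compounds at 1:260 dilution of DMSO stock. Lysed, then beta-galactosidase activity read as FDG fluorescence (ex 480/em 540) after 30 min, with pre-read for autofluorescence.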
Potency is read from the fitted curve at half-maximal effect.

Row | SMILES | Potency
1 | NC1=NC(=O)C(Cc2ccc(Br)cc2)S1 (stereo not drawn) | inconclusive: 14.1 µM [activator, single point]
2 | COc1ccccc1NS(=O)(=O)c1cc(NC(=O)c2sccc2C)ccc1N1CCOCC1 | inconclusive: 28.2 µM [activator, single point]
3 | Cc1ccsc1/C=N/Nc1ccc(F)cc1F | inconclusive: 2 µM [activator, single point]
4 | Cc1nc(-c2ccc(NC(=O)c3ccccc3Br)cc2)cs1 | inconclusive: 28.2 µM [activator, partial curve, poor fit]
5 | Cc1ccn2cc(-c3cccc(NC(=O)C(C)C)c3)nc2c1 | inconclusive: 11.2 µM [activator, single point]
6 | O=C(CSc1cccc[n+]1[O-])Nc1cc(S(=O)(=O)N2CCOCC2)ccc1Cl | inconclusive: 3.55 µM [activator, single point]
7 | Cc1nn(-c2ccc([N+](=O)[O-])cc2)c2c1C(c1cccc(Br)c1)N1C(=N2)C(=O)Nc2ccccc21 (stereo not drawn) | inconclusive: 11.2 µM [activator, partial curve, poor fit]
8 | COc1ccc(/C=N/NC(=O)c2nnn(-c3nonc3N)c2-c2cccs2)c(OC)c1 | inconclusive: 12.6 µM [activator, single point]
9 | CCCc1nc(C)cc(N2CCN(c3ccccc3)CC2)n1 | inconclusive: 0.501 µM [activator, full curve, poor fit]
10 | Cc1noc(C)c1S(=O)(=O)N(C)C[C@H]1Oc2c(NC(=O)Nc3ccccc3)cccc2C(=O)N([C@H](C)CO)C[C@@H]1C | inconclusive: 3.55 µM [activator, partial curve, poor fit]
11 | CCOc1ccc(NC(=O)CN2C(=O)S/C(=C/c3cccn3C)C2=O)cc1 | inconclusive: 3.16 µM [activator, full curve]
12 | CN1C2=C(C(=O)CC(C)(C)C2)C(c2cccs2)C2=C1CC(C)(C)CC2=O | inconclusive: 0.631 µM [activator, full curve, poor fit]
13 | CCCC(=O)N1CCN(c2nc3ccccc3s2)CC1 | inactive
14 | CCOC(=O)c1ccc(N2Cc3ccccc3C2)cc1O | inactive
15 | CC(C)(CC(=O)O)CC(=O)Nc1ccccc1Oc1ccccc1 | inconclusive: 11.2 µM [activator, partial curve, poor fit]
16 | COc1ccc(C(=O)N[C@H](C(=O)Nc2nc3c(s2)CCCC3)C(C)C)cc1 | inactive
17 | Cc1cc(Nc2cccc(Cl)c2)nc(-c2ccccc2O)n1 | inactive
18 | CCOc1ccc(S(=O)(=O)/N=C(/Nc2ccc(OC)cc2)c2ccccc2)cc1 | inconclusive: 5.01 µM [activator, single point]
19 | CCOc1ccc(NC(=O)CCC(=O)NNC(=O)c2ccc(Br)o2)cc1 | inconclusive: 17.8 µM [activator, single point]
20 | CCOc1ccc(-c2csc(NC(=O)c3ccco3)n2)cc1 | inconclusive: 5.01 µM [activator, single point]
21 | Cc1cccc(/C=N/Nc2nncc3ccccc23)c1 | inactive
22 | O=C1C2CCCCN2C(=O)N1CCCN1CCN(c2cccc(C(F)(F)F)c2)CC1 (stereo not drawn) | inactive

Structural class, those above containing fluorine.
Row | SMILES | Potency
3 | Cc1ccsc1/C=N/Nc1ccc(F)cc1F | inconclusive: 2 µM [activator, single point]
22 | O=C1C2CCCCN2C(=O)N1CCCN1CCN(c2cccc(C(F)(F)F)c2)CC1 (stereo not drawn) | inactive

Next part.

Row | SMILES | Potency
23 | CCN(CC)C(=O)c1sc(NC(=O)c2ccc(Br)o2)c(C(=O)OC)c1C | inactive
24 | CC(C)CC(=O)Nc1cc2c3c(c1)CCN3C(=O)CC2 | inconclusive: 10 µM [activator, single point]
25 | C[C@@H]1[C@H](O)C[C@@]23COC(=O)C2=CCC[C@@H]3[C@@]1(C)CC/C(=C/CO)CO | inactive
26 | Cc1nn(C)cc1S(=O)(=O)N1CCN(c2cccc(Cl)c2)CC1 | inconclusive: 28.2 µM [activator, single point]
27 | Cc1[nH]n(-c2ccccc2)c(=O)c1C(=O)c1ccc(Cl)cc1 | inactive
28 | Cc1nc(C(F)(F)F)ccc1C(=O)Nc1ccc(C(F)(F)F)cn1 | inconclusive: 22.4 µM [activator, single point]
29 | O=C(CSc1nc2ccccc2c(=O)n1-c1ccccc1)N/N=C/C=C/c1ccccc1[N+](=O)[O-] | inconclusive: 1.26 µM [activator, partial curve, poor fit]
30 | O=C(CC1CCCCC1)NCc1ccccc1 | inconclusive: 4.47 µM [activator, single point]
31 | Cc1ccc([N+](=O)[O-])cc1NC(=O)CN1CCC(C)CC1 | inactive
32 | COc1ccc(C2=NS(=O)(=O)N(C)C(C(=O)Nc3cc(C)ccc3O)=C2)cc1OC | inconclusive: 3.16 µM [activator, partial curve, poor fit]
33 | CNC(=S)N1CCc2cc(OC)c(OC)cc2C1COc1ccc(F)cc1 (stereo not drawn) | inconclusive: 14.1 µM [activator, partial curve, poor fit]
34 | COc1ccc(NC(=O)C[C@H]2C(=O)N(c3ccccc3)C[C@@H]2CSC)cc1 | inactive
35 | COc1cc(OC)cc(C(=O)Nc2cccc3c2CCCC3)c1 | inconclusive: 5.01 µM [activator, single point]
36 | CCN(c1ccccc1)S(=O)(=O)c1ccc(OC)c(NC(=O)c2cc(F)c(F)c(F)c2F)c1 | inactive
37 | CC(CCc1ccccc1)N(C)CC(O)c1cccc([N+](=O)[O-])c1 (stereo not drawn) | inactive
38 | CCN(CC)CCNC(=S)Nc1ccc(F)cc1 | inconclusive: 28.2 µM [activator, single point]
39 | O=C(O)c1cccc(S(=O)(=O)Nc2ccc(OCc3ccccc3)cc2)c1 | inconclusive: 28.2 µM [activator, single point]
40 | COc1ccc(CCNS(=O)(=O)c2ccc(Br)s2)cc1 | inconclusive: 5.01 µM [activator, single point]
41 | c1cnc(SCCCOc2ccc3ccccc3c2)nc1 | inactive
42 | COc1ccc(CCN2C(=O)C(Oc3ccccc3C)C2c2ccc3c(c2)OCO3)cc1OC (stereo not drawn) | inconclusive: 28.2 µM [activator, single point]
43 | COc1ccc(N2CC(C(=O)Nc3nnc(SCC(=O)NC(C)(C)C)s3)CC2=O)cc1 (stereo not drawn) | inconclusive: 6.31 µM [activator, partial curve, poor fit]
